Our source for the activity change, negative = inhibition values is PubChem BioAssay AID1347431 (National Center for Advancing Translational Sciences (NCATS), 2020).

The assay is described as follows: Confirmatory qHTS assay for inhibitors of Activation Induced Cytidine Deaminase (AID): UDG signals. Note: 0% is about no effect. Particulars: UDG coupled enzyme activity counter-screen. The method, boiled down: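 UDG readout, a counterscreen: AID (1 uM, 4/3x) plus UDG (2 U/mL, 4/3x) preincubated 10 min with compound (7.32 nM - 114 uM final), then 4 h with DJC20/DJC23 substrates at room temperature; NaOH added, fluorescence read at 560/665 nm.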
For orientation: Quantitative high-throughput screening tests each substance at several concentrations.

The mark [1] stands for this setting: at 115 µM (top of the series) unless noted.

Out of some 1,200 compounds screened, fewer than 10 were called active. Calls come from the whole dose curve; as a rule, active = well fitted curve in the direction sought with a large enough effect; inconclusive = small, poorly fitted or top-dose-only effect, or another doubt; inactive = no such curve, though single readings can be large or run the other way. Some of the results follow.

For the compound `O=C(COc1ccccc1)NCC(c1cccs1)S(=O)(=O)c1ccc(Cl)cc1` (configuration not stated), the activity change, negative = inhibition under setting [1] was inactive: -5.8%.
`CCN(C(=O)Cn1c(SCC(=O)Nc2ccc(OC)cc2)nc2ccccc21)c1cccc(C)c1`: the activity change, negative = inhibition under setting [1] is inactive: -15.6%.
On the same count and under the same terms, under `Cc1ccc(COc2ccc3oc(-c4ccccc4)c(C(=O)O)c3c2)cc1` stands inactive: 5.26%; under `Cc1ccc(CNC(=O)c2sc3nc4n(c(=O)c3c2C)CCCC4)cc1`, inactive: -1.49%; under `Cc1nn(-c2ccccc2)c(-n2cccc2)c1C(=O)NCCc1ccc(Cl)cc1`, inactive: 0.416%.
The same measure, in the same setting: under `Cc1cccc(CCNc2ncnc3onc(-c4ccc(Cl)cc4)c23)c1` stands inactive: -7.85%; under `COc1ccc(CCNC(=O)CSc2cn(CCNC(=O)c3cccc(C(F)(F)F)c3)c3ccccc23)cc1OC`, inactive: -4.31%.
Still for that read-out and setting: under `Cc1ccc(NC(=O)CSc2ncc(S(=O)(=O)c3ccc(C(C)C)cc3)c(=O)[nH]2)cc1C` stands inactive: -0.608%; under `Cc1ccc(C(=O)c2cn(Cc3cccc(C)c3)c3nc(C)ccc3c2=O)cc1`, inactive: -3.56%; under `COc1cc2nc(NC(=O)c3ccc(S(=O)(=O)N4CCc5ccccc54)cc3)sc2cc1OC`, inactive: 3.33%.
As for `CCN(CCCNC(=O)c1cc2c(=O)n(CC)c3ccccc3c2s1)Cc1ccccc1`, the activity change, negative = inhibition under setting [1] is inactive: -11.7%.
The same measure, in the same setting: the result for `COc1ccc(-c2cn3c(n2)sc2cc(C(=O)NCCCN4CCCCC4)ccc23)cc1` reads inactive: -3.99%.
In the case of `CC(C)(Sc1ccc(CCN(CCCCC2CCCCC2)C(=O)NC2CCCCC2)cc1)C(=O)O`, the activity change, negative = inhibition runs as follows: (at 115 µM (top of the series)) inactive: -1.42% [middle of 4 runs]; (at 230 µM (top of the series)) inactive: 1.92%.
Consider `CSc1ccc2c(c1)N(CCC1CCCCN1C)c1ccccc1S2` (configuration not stated), for which the activity change, negative = inhibition under setting [1] is inactive: 2.35%.
Still for that read-out and setting: the result for `O=C(CN(c1cc(C(F)(F)F)ccc1Cl)S(=O)(=O)c1ccccc1)NCCc1ccccc1` reads inactive: -12.4%; that for `CCCCCn1c(CCCNC(=O)c2cccc(C)c2)nc2ccccc21`, inactive: -5.02%; that for `CCc1ccccc1N(C)C(=O)c1sc2nc3n(c(=O)c2c1C)CCCCC3`, inactive: 1.65%.
Still for that read-out and setting: under `CC1CCCN(CCCNC(=O)c2cc3c(Cl)nc4ccccc4c3s2)C1` (configuration not stated) stands inactive: -15.9%; under `O=C(NCc1cccs1)c1ccc(CSc2nc3ccncc3n2Cc2ccccc2F)cc1`, inactive: -4.24%; under `Cc1ccc(Cl)cc1N1CCN(C(=O)c2ccc3c(c2)N(Cc2ccccc2)CCS3)CC1`, inactive: 10.8%.
The same measure, in the same setting: the result for `Cc1ccc(-c2nc(C(=O)N3CCN(c4ccccc4)CC3)c3n2CCCCC3)cc1` reads inactive: -5.2%; that for `Cc1ccc(CN(Cc2ccco2)C(=O)COc2cccc(C)c2C)o1`, inactive: -10.6%.
On to `CCN(CC)c1cc(C)c2cc(NC(=O)c3cc(OC)cc(OC)c3)ccc2n1`, for which the activity change, negative = inhibition under setting [1] was inactive: -13.3%.
For the compound `COCc1cc(C)nc2sc3c(c12)NC(c1ccccc1C(=O)O)N(c1cccc(C(F)(F)F)c1)C3=O` (configuration not stated), the activity change, negative = inhibition under setting [1] is inactive: 4.69%.
The same measure, in the same setting: the result for `COc1ccc(-c2noc(CN(C(=O)c3ccccc3Cl)C(C)C)n2)cc1` reads inactive: 3.14%; that for `Cc1ccc(C(=O)c2cn(Cc3cc(C)ccc3C)c3nc(C)ccc3c2=O)cc1`, inactive: -8.53%; that for `Cc1ccc(CN(Cc2ccco2)C(=O)c2ccccc2Br)o1`, inactive: 0.204%.
On the same count and under the same terms, the result for `Cc1ccc(-n2cnc3cc(C(=O)NCCC4=CCCCC4)ccc32)c(C)c1` reads inactive: -3.85%.
On the same count and under the same terms, under `Cc1c(C(=O)Nc2ccc(F)cc2F)oc2c1-c1nn(Cc3c(F)cccc3Cl)cc1CC2` stands inactive: 0.989%.
Take `Cc1ccc(CN(Cc2ccco2)C(=O)c2ccc(Cl)cc2Cl)cc1`: under setting [1], the activity change, negative = inhibition is inactive: 4.19%.
Still for that read-out and setting: the result for `Cc1cccc(-c2nc(CCNC(=O)COc3ccccc3)cs2)c1` reads inactive: -11.8%; that for `O=C(COc1ccc(Cl)cc1)N(Cc1ccco1)Cc1ccco1`, inactive: -6.01%.
The same measure, in the same setting: under `CCOC(=O)c1c(C)oc2nc(C)nc(N3CCN(c4ccccc4F)CC3)c12` stands inactive: -3.63%; under `Cc1[nH]n2c(=O)cc(-c3ccc(Cl)cc3)nc2c1-c1ccccc1`, inactive: 6.16%; under `CCc1ccc(NS(=O)(=O)c2ccc3oc(=O)c4ncn(CC)c4c3c2)cc1`, inactive: 11.9%.
Same read-out and setting: under `CCn1c(SCc2ccccc2C)nc(=O)c2c(C(=O)OC)cc(C3CC3)nc21` stands inactive: 7.93%; under `CCN(c1cccc(C)c1)S(=O)(=O)c1ccc(-n2cccn2)cc1`, inactive: 7.06%.
`Cc1[nH]n(-c2ccccc2)c(=O)c1C(c1cc(Cl)ccc1O)c1c(C)[nH]n(-c2ccccc2)c1=O`: the activity change, negative = inhibition under setting [1] is inactive: 10.8%.
Same read-out and setting: the result for `CN(CCCNC(=O)c1cc2c(Cl)nc3ccccc3c2s1)Cc1ccccc1` reads inactive: 4.21%.
The same measure, in the same setting: the result for `Cc1ccc(C2CCN(C(=O)c3cnn(-c4cccc(Cl)c4)c3C3CCN(C(=O)OC(C)(C)C)CC3)C2)cc1` (configuration not stated) reads inactive: -4.86%; that for `COc1ccc(NC(=O)N(CCC(C)C)C(C)c2cccs2)c(OC)c1` (configuration not stated), inactive: 1.79%; that for `COc1ccccc1Oc1nc2c(c(=O)n(C)c(=O)n2C)n1Cc1cccc(Br)c1`, inactive: -1.11%.
For the compound `Cc1ccc(Cl)cc1N1CCN(C(=O)c2cc(S(=O)(=O)N3CCC(C)CC3)cn2C)CC1`, the activity change, negative = inhibition under setting [1] was inactive: -6%.
Same read-out and setting: under `Cc1ccc(C)c(C(=O)N2CCC(c3nc4c(nnn4Cc4ccccc4)c(=O)[nH]3)CC2)c1` stands inactive: 7.61%; under `CCc1ccccc1NC(=O)[C@H](Cc1ccccc1)N1Cc2ccccc2C1=O`, inactive: -5.74%.
On the same count and under the same terms, the result for `CC(C)CN(c1ccccc1)S(=O)(=O)c1nnc(NC(=O)c2ccco2)s1` reads inactive: 3.9%; that for `Cc1ccc(N2CCN(C(=O)c3nn(C)c4c3CS(=O)(=O)c3ccccc3-4)CC2C)cc1` (configuration not stated), inactive: 2.11%; that for `COc1cccc(NC(=O)Cn2c(=O)n(Cc3ccccc3)c(=O)c3c4c(sc32)CN(C(C)=O)CC4)c1`, inactive: -1.92%.
For `COc1ccc(Cn2cc(C(=O)c3ccc(OC)cc3)c(=O)c3cc4c(cc32)OCCO4)cc1`, the activity change, negative = inhibition under setting [1] is inactive: 2.39%.
In the case of `Cc1nc2c(-c3ccccc3)c(C)nn2c(C)c1CCC(=O)N1CCN(c2ccccc2)CC1`, the activity change, negative = inhibition under setting [1] was inactive: 2.79%.
As for `Cc1ncc(CO)c2c1Oc1nc(-c3ccccc3)nc(SCC(=O)N3CCCCC3)c1C2`, under setting [1], the activity change, negative = inhibition is inactive: -7.24%.
For `CC(C)c1ccc2c(c1)c(SC(C)(C)C)c(CC(C)(C)C(=O)O)n2Cc1ccc(Cl)cc1`, under setting [1], the activity change, negative = inhibition is inactive: -8.67%.
Same read-out and setting: under `Cc1ccc(CCNC(=O)c2ccc3c(c2)N(Cc2ccccc2F)C(=O)c2ccccc2S3=O)cc1` (configuration not stated) stands inactive: -2.13%; under `COc1ccc(-c2cc3ncc(C(=O)c4cc([N+](=O)[O-])ccc4O)cn3n2)cc1`, inactive: 4.06%.
Consider `O=C(c1ccc2c(c1)N(Cc1c(F)cccc1Cl)C(=O)c1ccccc1S2)N1CCCC1`, for which, under setting [1], the activity change, negative = inhibition is inactive: -3.45%.
Consider `Cc1ccc(-n2cc(-c3ccccc3)nc2S(=O)(=O)CC(=O)Nc2ccc(F)cc2)cc1`, for which the activity change, negative = inhibition under setting [1] was inactive: -6.08%.
Regarding `CCCn1c2ccccc2c2cnn(CC(=O)N(C)c3ccccc3CC)c(=O)c21`, the activity change, negative = inhibition under setting [1] was inactive: -2.7%.
Same read-out and setting: under `CCc1cccc(-n2c(C)nc3c(cnn3-c3ccc(C)c(C)c3)c2=O)c1` stands inactive: -3.24%; under `COc1cccc2sc(N(Cc3cccnc3)C(=O)Cc3ccccc3)nc12`, inactive: 10.2%.
On the same count and under the same terms, under `Cc1nc(Nc2ccc(Cl)cc2)cc(-c2ccccc2)n1` stands inactive: -16.5%; under `COc1cccc(Cn2nnc3c(=O)[nH]c(C4CCN(C(=O)c5ccccc5Cl)CC4)nc32)c1`, inactive: 2.95%.
Same read-out and setting: under `O=C(NCCc1ccccc1Cl)c1sc2ncccc2c1-n1cccc1` stands inactive: -9%; under `CN(C)CCNc1ncnc2c1cnn2-c1cccc(Cl)c1`, inactive: -9.32%; under `O=C(CSC1=Nc2ccccc2N=C(c2ccc(F)cc2)C1)Nc1cccc(C(F)(F)F)c1`, inactive: -4.58%.
In the case of `CCCN(CCC)CCCNC(=O)c1cn(CC)c2ccc(S(=O)(=O)N(C)C3CCCCC3)cc2c1=O`, the activity change, negative = inhibition under setting [1] was inactive: -14%.
Still for that read-out and setting: under `Cc1nc2c(C(=O)NCCC(C)C)cnn2c(C)c1Cc1c(F)cccc1Cl` stands inactive: -17.1%.
Still for that read-out and setting: the result for `CCCn1cc(S(=O)(=O)c2ccc(OC)cc2)c(=O)c2cc(F)c(N3CCCCCC3)cc21` reads inactive: -2.2%; that for `CCn1cc(S(=O)(=O)c2ccc(C)cc2C)c(=O)c2cc(F)c(N3CCCC3)cc21`, inactive: 0.779%.
Still for that read-out and setting: under `COC(=O)c1c(NC(=O)COc2ccc(OC)cc2)sc2c1CCC(C)C2` (configuration not stated) stands inactive: 6.36%; under `COc1cc(C(=O)Nc2ccc(OCc3cc(=O)n4cccc(C)c4n3)cc2)cc(OC)c1OC`, inactive: 6.24%.
As for `CCCCn1cc(S(=O)(=O)c2ccccc2)c(=O)c2cc(F)c(N3CCC(C)CC3)cc21`, the activity change, negative = inhibition under setting [1] is inactive: 2.03%.
With `Cc1ccc(-c2nnc(Nc3ccc(O)cc3)c3ccccc23)cc1S(=O)(=O)NC(C)(C)CO`, the activity change, negative = inhibition under setting [1] was inactive: -6.8%.
Same read-out and setting: under `COc1ccc(Nc2cc(C)c3cc(NC(=O)COc4cccc(C)c4)ccc3n2)cc1` stands inactive: -15.8%; under `CC(=O)N1CCc2c(sc3c2c(=O)n(Cc2ccccc2)c(=O)n3Cc2ccccc2Cl)C1`, inactive: -6.32%.
Same read-out and setting: under `Cc1ccc(Cl)cc1N1CCN(C(=O)COc2cc(=O)n(C)c3ccccc23)CC1` stands inactive: 4.81%; under `COc1ccc(OC)c(NC(=O)CSc2nccn2-c2cc(C)cc(C)c2)c1`, inactive: -12.6%.
In the case of `CN(C)c1ccc(-c2nnc3n(Cc4ccccc4)c(=O)c4ccccc4n23)cc1`, the activity change, negative = inhibition under setting [1] was inactive: -5.71%.
The same measure, in the same setting: the result for `Cc1nc2nc(SCC(=O)NCCc3ccc(Cl)cc3)nn2c(C)c1Cc1ccccc1Cl` reads inactive: -9.67%; that for `COc1ccc(C(=O)c2cn(Cc3cccc(C)c3)c3cc4c(cc3c2=O)OCO4)cc1`, inactive: 0.0805%.
The same measure, in the same setting: under `CCCN(CCC)CC(O)Cn1cc(/C=C/C(=O)c2ccc(OC)cc2)c2ccccc21` (configuration not stated) stands inactive: -16.8%.
As to `Cc1cc(N(C)Cc2ccccc2)n2nc(-c3ccc(C(C)(C)C)cc3)nc2n1`, the activity change, negative = inhibition under setting [1] is inactive: -13.6%.
